This is an account of results in paper PMC4507757.

Amino acid sequences for entries named in this document (tags omitted). Residues count along the entry.
UniProt A0A0P0XCU3, residues 50-1875: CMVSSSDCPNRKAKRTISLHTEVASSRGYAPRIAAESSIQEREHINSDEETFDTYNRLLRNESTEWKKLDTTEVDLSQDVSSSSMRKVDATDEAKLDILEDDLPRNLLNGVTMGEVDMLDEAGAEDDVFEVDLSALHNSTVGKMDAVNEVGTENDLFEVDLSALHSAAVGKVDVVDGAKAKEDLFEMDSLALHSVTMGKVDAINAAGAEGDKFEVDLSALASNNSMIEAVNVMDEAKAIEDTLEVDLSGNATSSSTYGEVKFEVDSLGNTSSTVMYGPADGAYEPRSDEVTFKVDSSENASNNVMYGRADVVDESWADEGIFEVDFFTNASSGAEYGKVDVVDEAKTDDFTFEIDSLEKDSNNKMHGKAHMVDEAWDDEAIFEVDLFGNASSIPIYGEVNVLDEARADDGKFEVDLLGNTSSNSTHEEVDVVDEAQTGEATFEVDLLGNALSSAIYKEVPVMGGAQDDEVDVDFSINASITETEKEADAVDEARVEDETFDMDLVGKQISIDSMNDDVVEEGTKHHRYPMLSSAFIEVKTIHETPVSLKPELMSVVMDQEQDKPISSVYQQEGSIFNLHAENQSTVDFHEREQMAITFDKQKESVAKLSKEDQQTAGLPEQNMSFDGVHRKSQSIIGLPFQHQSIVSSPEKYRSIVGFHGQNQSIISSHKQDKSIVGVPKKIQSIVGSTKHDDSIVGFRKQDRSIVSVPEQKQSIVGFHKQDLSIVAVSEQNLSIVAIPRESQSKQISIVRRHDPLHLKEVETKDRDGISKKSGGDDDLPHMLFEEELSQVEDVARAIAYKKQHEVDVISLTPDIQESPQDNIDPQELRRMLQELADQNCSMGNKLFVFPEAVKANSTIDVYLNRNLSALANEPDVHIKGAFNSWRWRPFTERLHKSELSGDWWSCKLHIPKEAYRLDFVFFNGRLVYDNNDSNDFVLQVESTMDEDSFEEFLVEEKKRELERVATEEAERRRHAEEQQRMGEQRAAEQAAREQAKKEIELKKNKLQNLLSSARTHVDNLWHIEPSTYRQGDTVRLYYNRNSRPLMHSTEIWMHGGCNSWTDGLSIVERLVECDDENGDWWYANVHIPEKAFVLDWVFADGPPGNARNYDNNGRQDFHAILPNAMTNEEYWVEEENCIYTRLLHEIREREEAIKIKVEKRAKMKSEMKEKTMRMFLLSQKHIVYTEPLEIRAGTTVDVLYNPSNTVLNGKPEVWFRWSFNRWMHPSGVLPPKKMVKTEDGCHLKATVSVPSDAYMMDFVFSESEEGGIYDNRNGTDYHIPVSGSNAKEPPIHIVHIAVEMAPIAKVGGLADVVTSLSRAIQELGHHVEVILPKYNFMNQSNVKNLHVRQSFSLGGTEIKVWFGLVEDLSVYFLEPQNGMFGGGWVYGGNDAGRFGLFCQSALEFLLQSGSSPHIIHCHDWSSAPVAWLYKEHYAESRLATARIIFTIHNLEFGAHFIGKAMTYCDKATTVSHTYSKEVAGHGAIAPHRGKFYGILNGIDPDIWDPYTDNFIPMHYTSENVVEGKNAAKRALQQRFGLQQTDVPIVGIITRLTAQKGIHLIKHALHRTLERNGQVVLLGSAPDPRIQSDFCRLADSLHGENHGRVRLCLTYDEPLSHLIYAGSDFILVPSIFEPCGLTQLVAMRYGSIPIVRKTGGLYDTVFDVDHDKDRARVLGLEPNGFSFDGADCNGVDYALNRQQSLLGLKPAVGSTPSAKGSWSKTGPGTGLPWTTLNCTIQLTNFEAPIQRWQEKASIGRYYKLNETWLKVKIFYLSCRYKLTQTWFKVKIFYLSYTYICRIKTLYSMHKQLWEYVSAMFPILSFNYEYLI

Results are given in words; binding and its absence hold for the method and conditions named. For some of these results: Binding seen in cells or lysates may run through a third protein. Some results given as binding are weak or reduced against the parent protein; the word gives no strength.

Assay [1] addresses T1, starch synthase IIa (SSIIa) (rice, Oryza sativa L. japonica cv. Nipponbare (endogenous in developing endosperm)) (UniProt Q0DDE3).
T1 sequence: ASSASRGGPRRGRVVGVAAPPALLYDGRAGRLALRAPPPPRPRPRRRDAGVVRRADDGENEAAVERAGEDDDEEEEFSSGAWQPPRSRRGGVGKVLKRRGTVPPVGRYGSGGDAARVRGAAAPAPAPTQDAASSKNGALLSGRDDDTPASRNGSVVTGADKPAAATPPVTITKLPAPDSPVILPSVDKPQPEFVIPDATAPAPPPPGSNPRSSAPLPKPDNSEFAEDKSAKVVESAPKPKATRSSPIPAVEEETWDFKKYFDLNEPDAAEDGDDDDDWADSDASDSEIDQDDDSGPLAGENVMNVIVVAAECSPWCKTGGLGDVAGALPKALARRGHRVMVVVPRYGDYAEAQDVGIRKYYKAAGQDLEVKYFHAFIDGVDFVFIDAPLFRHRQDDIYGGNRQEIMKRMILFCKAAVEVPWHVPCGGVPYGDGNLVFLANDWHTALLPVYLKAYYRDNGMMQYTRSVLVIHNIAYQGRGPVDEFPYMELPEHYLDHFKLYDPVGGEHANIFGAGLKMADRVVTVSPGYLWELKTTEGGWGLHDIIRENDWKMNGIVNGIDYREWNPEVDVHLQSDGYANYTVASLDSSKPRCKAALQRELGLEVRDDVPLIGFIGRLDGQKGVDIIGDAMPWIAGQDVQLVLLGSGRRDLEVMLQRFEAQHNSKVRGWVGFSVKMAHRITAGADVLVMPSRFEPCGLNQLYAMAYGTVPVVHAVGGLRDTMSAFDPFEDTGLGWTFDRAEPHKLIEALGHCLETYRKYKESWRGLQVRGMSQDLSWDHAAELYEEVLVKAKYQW
The assay is described as follows: co-IP; soluble extract of developing rice endosperm mixed with isozyme-specific antibodies (pre-immune serum as control) 1.5 h at 4 °C, protein A-Sepharose 1 h at 4 °C; 10 mM HEPES-KOH pH 7.5, 100 mM NaCl, 1 mM DTT; eight washes; bound proteins analysed by western blotting.

In assay [2] the target is T2, starch branching enzyme I (BEI) (rice, Oryza sativa L. japonica cv. Nipponbare (endogenous in developing endosperm)) (UniProt Q01401).
T2 sequence: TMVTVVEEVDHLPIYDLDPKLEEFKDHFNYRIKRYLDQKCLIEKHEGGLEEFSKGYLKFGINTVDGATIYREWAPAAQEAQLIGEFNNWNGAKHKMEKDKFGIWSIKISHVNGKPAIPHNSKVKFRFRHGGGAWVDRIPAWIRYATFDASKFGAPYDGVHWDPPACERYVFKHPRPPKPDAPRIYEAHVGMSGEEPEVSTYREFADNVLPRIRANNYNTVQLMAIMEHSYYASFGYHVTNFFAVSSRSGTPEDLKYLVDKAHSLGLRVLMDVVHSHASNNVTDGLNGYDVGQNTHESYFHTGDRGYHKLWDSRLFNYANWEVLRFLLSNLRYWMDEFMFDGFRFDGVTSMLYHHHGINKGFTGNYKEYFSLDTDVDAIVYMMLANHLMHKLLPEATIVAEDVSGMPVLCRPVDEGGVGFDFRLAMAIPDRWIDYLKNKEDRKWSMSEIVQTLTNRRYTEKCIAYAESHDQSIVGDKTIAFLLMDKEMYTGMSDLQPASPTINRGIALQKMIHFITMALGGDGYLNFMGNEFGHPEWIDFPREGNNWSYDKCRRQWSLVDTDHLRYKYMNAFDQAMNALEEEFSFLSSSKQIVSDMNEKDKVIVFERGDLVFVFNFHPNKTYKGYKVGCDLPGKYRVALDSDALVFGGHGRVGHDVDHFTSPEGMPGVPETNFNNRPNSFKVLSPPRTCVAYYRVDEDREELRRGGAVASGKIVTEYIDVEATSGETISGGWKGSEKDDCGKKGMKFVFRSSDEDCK
The description is as above.

For assay [3], the target named is starch synthase IIIa (SSIIIa) (rice, Oryza sativa L. japonica cv. Nipponbare (endogenous in developing endosperm)). The assay is described as above.
The target in assay [4] is isoamylase 1 (ISA1) (rice, Oryza sativa L. japonica cv. Nipponbare (endogenous in developing endosperm)) (UniProt D0TZF0). The assay is described as follows: SEC; gel permeation chromatography of soluble developing rice endosperm extract on Superdex 200 10/300 at 4 °C; 10 mM HEPES-KOH pH 7.5, 100 mM NaCl; fractions analysed by western blotting and native-PAGE zymograms.
For assay [5], the target named is T3, starch synthase I (SSI) (rice, Oryza sativa L. japonica cv. Nipponbare (endogenous in developing endosperm)) (UniProt Q0DEC8).
T3 sequence: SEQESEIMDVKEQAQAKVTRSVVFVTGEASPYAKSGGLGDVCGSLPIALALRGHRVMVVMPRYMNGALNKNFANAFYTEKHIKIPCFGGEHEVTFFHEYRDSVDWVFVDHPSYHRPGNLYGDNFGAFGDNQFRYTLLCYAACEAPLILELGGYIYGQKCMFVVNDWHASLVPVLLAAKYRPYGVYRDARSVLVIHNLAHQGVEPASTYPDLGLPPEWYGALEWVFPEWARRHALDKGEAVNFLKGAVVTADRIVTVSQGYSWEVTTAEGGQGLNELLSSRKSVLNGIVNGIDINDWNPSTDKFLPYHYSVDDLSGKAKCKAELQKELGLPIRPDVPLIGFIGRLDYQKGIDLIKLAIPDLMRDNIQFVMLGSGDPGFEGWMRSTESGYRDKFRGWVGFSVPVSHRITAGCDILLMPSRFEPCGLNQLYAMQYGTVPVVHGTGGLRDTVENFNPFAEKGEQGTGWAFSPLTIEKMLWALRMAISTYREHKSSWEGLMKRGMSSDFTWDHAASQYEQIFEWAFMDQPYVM
The assay is described as follows: co-IP; soluble extract of developing rice endosperm mixed with isozyme-specific antibodies (pre-immune serum as control) 1.5 h at 4 °C, protein A-Sepharose 1 h at 4 °C; 10 mM HEPES-KOH pH 7.5, 100 mM NaCl, 1 mM DTT; eight washes; bound proteins analysed by western blotting.

On to “starch synthase IIIa (SSIIIa) (from UniProt A0A0P0XCU3 50-1875) (enzyme)”, for which the binding result in assay [1] and in assay [2] was “binds weakly” each time.

B1: starch synthase I (SSI) (enzyme, UniProt Q0DEC8 114-641)
chain: SEQESEIMDVKEQAQAKVTRSVVFVTGEASPYAKSGGLGDVCGSLPIALALRGHRVMVVMPRYMNGALNKNFANAFYTEKHIKIPCFGGEHEVTFFHEYRDSVDWVFVDHPSYHRPGNLYGDNFGAFGDNQFRYTLLCYAACEAPLILELGGYIYGQKCMFVVNDWHASLVPVLLAAKYRPYGVYRDARSVLVIHNLAHQGVEPASTYPDLGLPPEWYGALEWVFPEWARRHALDKGEAVNFLKGAVVTADRIVTVSQGYSWEVTTAEGGQGLNELLSSRKSVLNGIVNGIDINDWNPSTDKFLPYHYSVDDLSGKAKCKAELQKELGLPIRPDVPLIGFIGRLDYQKGIDLIKLAIPDLMRDNIQFVMLGSGDPGFEGWMRSTESGYRDKFRGWVGFSVPVSHRITAGCDILLMPSRFEPCGLNQLYAMQYGTVPVVHGTGGLRDTVENFNPFAEKGEQGTGWAFSPLTIEKMLWALRMAISTYREHKSSWEGLMKRGMSSDFTWDHAASQYEQIFEWAFMDQPYVM
Take B1: in assay [2], the binding result is reported as “binds weakly”.

B2: starch synthase IIa (SSIIa) (enzyme, UniProt Q0DDE3 17-810)
chain: ASSASRGGPRRGRVVGVAAPPALLYDGRAGRLALRAPPPPRPRPRRRDAGVVRRADDGENEAAVERAGEDDDEEEEFSSGAWQPPRSRRGGVGKVLKRRGTVPPVGRYGSGGDAARVRGAAAPAPAPTQDAASSKNGALLSGRDDDTPASRNGSVVTGADKPAAATPPVTITKLPAPDSPVILPSVDKPQPEFVIPDATAPAPPPPGSNPRSSAPLPKPDNSEFAEDKSAKVVESAPKPKATRSSPIPAVEEETWDFKKYFDLNEPDAAEDGDDDDDWADSDASDSEIDQDDDSGPLAGENVMNVIVVAAECSPWCKTGGLGDVAGALPKALARRGHRVMVVVPRYGDYAEAQDVGIRKYYKAAGQDLEVKYFHAFIDGVDFVFIDAPLFRHRQDDIYGGNRQEIMKRMILFCKAAVEVPWHVPCGGVPYGDGNLVFLANDWHTALLPVYLKAYYRDNGMMQYTRSVLVIHNIAYQGRGPVDEFPYMELPEHYLDHFKLYDPVGGEHANIFGAGLKMADRVVTVSPGYLWELKTTEGGWGLHDIIRENDWKMNGIVNGIDYREWNPEVDVHLQSDGYANYTVASLDSSKPRCKAALQRELGLEVRDDVPLIGFIGRLDGQKGVDIIGDAMPWIAGQDVQLVLLGSGRRDLEVMLQRFEAQHNSKVRGWVGFSVKMAHRITAGADVLVMPSRFEPCGLNQLYAMAYGTVPVVHAVGGLRDTMSAFDPFEDTGLGWTFDRAEPHKLIEALGHCLETYRKYKESWRGLQVRGMSQDLSWDHAAELYEEVLVKAKYQW
For the molecule B2, the binding entry in assay [3] is “binds weakly”.

B3: isoamylase 1 (ISA1) (enzyme, UniProt D0TZF0 55-803)
chain: SVASAVEVGVGEDEEEGVEEEEEEVEAVVMPERYALGGACRVLAGMPAPLGATALDGGVNFAVYSAGASAASLCLFTPDDLEADEVTEEVPLDPLFNRTGNVWHVFIEGELHNMLYGYRFDGMFAPHCGQYFDVSNVVVDPYAKAVISRGEYGVPGPGGDCWPQMAGMIPLPYSTFDWQGDLPLRYPQKDLVIYEMHLRGFTKHSSSNVEHPGTYIGAISKLDYLKELGVNCVELMPCHEFNELEYFSCSSKMNFWGYSTINFFSPMIRYSSGGIRNCGRDAINEFKTFVREAHKRGIEVIMDVVFNHTAEGNEKGPILSFRGIDNSTYYMLAPKGEFYNYSGCGNTFNCNHPVVREFIVDCLRYWVTEMHVDGFRFDLASIMTRGCSLWDPVNVYGSPVEGDMTTTGTPLATPPLIDMISNDPILGDVKLIAEAWDAGGLYQVGQFPHWKIWSEWNGKYRDIVRQFIKGTDGFAGGFAECLCGSPHLYQAGGRKPWHSINFVCAHDGFTLADLVTYNKKYNSSNGEDNRDGENHNLSWNCGEEGEFAGLSVKRLRKRQMRNFFVSLMVSQGVPMFYMGDEYGHTKGGNNNTYCHDHYVNYFRWDKKEESSDLQRFCSLMTKFRKQCESLGLADFPTAQRLHWHGHQPGKPDWSETSRFVAFSTKDETKGEIYVAFNASHLPAVVGLPERPGYRWEPLVDTGKPAPYDFLTDDLPDRAHAVHLFSHFLNSNLYPMLSYSSIILELQPDD
Turning to B3, the binding entry in assay [4] is “binds”.

B4: starch branching enzyme I (BEI) (enzyme, UniProt Q01401 65-820)
chain: TMVTVVEEVDHLPIYDLDPKLEEFKDHFNYRIKRYLDQKCLIEKHEGGLEEFSKGYLKFGINTVDGATIYREWAPAAQEAQLIGEFNNWNGAKHKMEKDKFGIWSIKISHVNGKPAIPHNSKVKFRFRHGGGAWVDRIPAWIRYATFDASKFGAPYDGVHWDPPACERYVFKHPRPPKPDAPRIYEAHVGMSGEEPEVSTYREFADNVLPRIRANNYNTVQLMAIMEHSYYASFGYHVTNFFAVSSRSGTPEDLKYLVDKAHSLGLRVLMDVVHSHASNNVTDGLNGYDVGQNTHESYFHTGDRGYHKLWDSRLFNYANWEVLRFLLSNLRYWMDEFMFDGFRFDGVTSMLYHHHGINKGFTGNYKEYFSLDTDVDAIVYMMLANHLMHKLLPEATIVAEDVSGMPVLCRPVDEGGVGFDFRLAMAIPDRWIDYLKNKEDRKWSMSEIVQTLTNRRYTEKCIAYAESHDQSIVGDKTIAFLLMDKEMYTGMSDLQPASPTINRGIALQKMIHFITMALGGDGYLNFMGNEFGHPEWIDFPREGNNWSYDKCRRQWSLVDTDHLRYKYMNAFDQAMNALEEEFSFLSSSKQIVSDMNEKDKVIVFERGDLVFVFNFHPNKTYKGYKVGCDLPGKYRVALDSDALVFGGHGRVGHDVDHFTSPEGMPGVPETNFNNRPNSFKVLSPPRTCVAYYRVDEDREELRRGGAVASGKIVTEYIDVEATSGETISGGWKGSEKDDCGKKGMKFVFRSSDEDCK
In the case of B4, the binding result in assay [5] and in assay [3] was “binds weakly” each time.
